Values from PubChem BioAssay AID602196 (INSERM, 2012).

- Screen: 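Modifiers of cisplatin sensitivity in A549 cells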
- Cell system: human A549 lung cancer cells
- Reagents: siRNA pair against human genes
- Time to read-out: 48 h transfection before cisplatin; time from cisplatin to read-out not stated
- Treatment: cisplatin at a dose killing half of control-siRNA cells; exact dose and duration not given
- Measurement: 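Shift in cisplatin death relative to control siRNA, from -50 (all cells die) to +50 (no cells die); siRNAs harmful on their own scored 0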
- Direction: two-siRNA summed score (-2 to +2): higher = both siRNAs protect from cisplatin killing; -2 means both sensitise; mean protection from cisplatin (shift in death) and protection from cisplatin (shift in death), siRNA C and protection from cisplatin (shift in death), siRNA D: higher = protection from cisplatin killing
- Active means: 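Each siRNA scores 0 if harmful alone by LDH or WST-1, otherwise +1 if it reduces and -1 if it increases cisplatin killing; a gene is active when both siRNAs agree (sum +2 or -2)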
- Meaning of the calls: active = both siRNAs shift cisplatin killing the same way; inactive = no consistent shift, or siRNA harmful alone
The deposit covers about 23,000 reagents; below is a part drawn at random. In the full data, 455 (2%) got an active call. 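Active includes both protection and sensitisation; some change values fall well beyond the stated -50 to +50 range.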 A number with no mark means an inactive call. Reagent sequences are not shown. Not stated in the record: the amount of reagent.

| gene knocked down | two-siRNA summed score (-2 to +2) | mean protection from cisplatin (shift in death) (%) | protection from cisplatin (shift in death), siRNA C (%) | protection from cisplatin (shift in death), siRNA D (%) |
| --- | --- | --- | --- | --- |
| IER2 | 0 | -3.3 | -3.4 | -3.2 |
| CD200R1 | 0 | 10 | 13.8 | 6.3 |
| CDO1 | 0 | -0.4 | 5.9 | -6.6 |
| LOC401456 | 0 | -5.6 | 1.3 | -12.5 |
| NKAP | 0 | -3.6 | -0.4 | -6.8 |
| GAPT | 1 | 8.4 | 12.6 | 4.1 |
| CAPZA2 | 0 | 7 | 9.6 | 4.4 |
| TAFAZZIN | 0 | -4.9 | 4.8 | -14.7 |
| SMTN | 0 | 4.6 | 8.9 | 0.2 |
| NFRKB | 0 | 18.5 | 14.1 | 23 |
| FCAMR | 0 | -7.1 | -12.8 | -1.3 |
| GATC | 0 | 22.1 | 6.1 | 38.2 |
| ZRSR2 | 0 | 2.2 | -7.4 | 11.8 |
| RNF14 | 0 | -0.6 | -4.2 | 3 |
| ANKRD39 | 0 | 10.9 | 16 | 5.8 |
| TPCN1 | -1 | -19.5 | 5.2 | -44.1 |
| MASTL | 0 | -1.6 | -19.9 | 16.8 |
| LOC440196 | 0 | 8.5 | 18.1 | -1 |
| LINC01854 | 0 | 3.1 | 13.6 | -7.5 |
| LOC441713 | 1 | 7.2 | 13.8 | 0.7 |
| LOC441860 | -1 | -9.5 | -4.7 | -14.3 |
| CHMP1A | -1 | -12.5 | -14.5 | -10.6 |
| CCNL1 | 0 | 11.9 | 15.5 | 8.3 |
